From publication PMC4705380
No constants are given. Whether binding was seen depends on the method and setting.

Chains of the proteins cited; added tags and fusions are not shown. Lines headed by an entry give the natural chain unless they say otherwise; changes in a name come on top. Residues count along the entry.
UniProt P20151, residues 25-261: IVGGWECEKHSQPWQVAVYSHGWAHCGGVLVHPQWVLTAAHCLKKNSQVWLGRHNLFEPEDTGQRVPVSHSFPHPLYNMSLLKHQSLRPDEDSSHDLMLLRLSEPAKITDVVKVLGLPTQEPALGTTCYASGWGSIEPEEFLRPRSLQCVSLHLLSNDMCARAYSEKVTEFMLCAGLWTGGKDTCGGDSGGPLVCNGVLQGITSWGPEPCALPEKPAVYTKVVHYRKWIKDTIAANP

Target: mature human kallikrein-related peptidase 2 (KLK2), glycosylated, from Leishmania expression (LEXSY) (human) (UniProt P20151)
Assay: SEC; gel filtration of enterokinase-activated mature KLK2; Superdex 75 column (results); methods name a Superose 6 10/300 GL column, 5 mM Tris-HCl pH 8.0, 50 mM NaCl; both purified

binding: no binding
Substance: mature human kallikrein-related peptidase 2 (KLK2), glycosylated, from Leishmania expression (LEXSY) (from UniProt P20151-1 25-261) (enzyme)
